Data as given in PubChem BioAssay AID1259254 (NCATS, 2017)
In all, the deposit lists about 59,000 reagents; below is a part drawn at random. About 1,550 of them (2.6%) count as active. 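G2 share is only a proxy for re-replication; each gene was hit by three separate siRNAs, and active genes were retested.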 Raw values are not corrected between plates. Not given: the amount of reagent.

- Assay: 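Finding genes that stop cells copying their DNA twice in one cycle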 (primary screen)
- System: human HCT116 colorectal cancer cells
- Reagents: single siRNA against human genes
- Time to read-out: 3 days
- Detection: 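Imaged Hoechst DNA stain sorts each cell into a cycle phase by DNA amount; per plate, G2 fraction set to 0% for non-targeting and 100% for GMNN siRNA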
- Reading the numbers: G2 robust z-score and G2 cells, % of GMNN control: higher = more G2 cells, more excess DNA replication; raw share of cells in G2: higher = larger share of cells with G2 DNA content
- Active means: 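An siRNA counts as active if its G2 robust z-score lies at least 5 MADs above the screen median; here such calls match roughly 38% of GMNN control or more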

| target | PubChem SID | G2 robust z-score | G2 cells, % of GMNN control | raw share of cells in G2 (%) | Call |
| --- | --- | --- | --- | --- | --- |
| ABLIM2 | SID160752271 | 2.29 | 19.1 | 13.4 | inactive |
| ABLIM2 | SID160752272 | -1.02 | -4.23 | 3.22 | inactive |
| ABLIM2 | SID160752273 | 2.29 | 19.1 | 11.1 | inactive |
| ECD | SID160730475 | 4.38 | 33.8 | 18.2 | inactive |
| ECD | SID160730485 | 0.537 | 6.75 | 6.92 | inactive |
| ECD | SID160730493 | 1.3 | 12.1 | 7.7 | inactive |
| OR52A5 | SID160766338 | 1.66 | 14.6 | 8.79 | inactive |
| OR52A5 | SID160766339 | -0.688 | -1.87 | 2.59 | inactive |
| OR52A5 | SID160766340 | -1.11 | -4.83 | 2.56 | inactive |
| SMIM20 | SID160733233 | -0.942 | -3.66 | 3.06 | inactive |
| SMIM20 | SID160766128 | -0.438 | -0.111 | 3.73 | inactive |
| SMIM20 | SID160766129 | 0.185 | 4.27 | 5.26 | inactive |
| CLDN7 | SID160730617 | -0.112 | 2.18 | 3.9 | inactive |
| CLDN7 | SID160747488 | 0.0172 | 3.09 | 4.69 | inactive |
| CLDN7 | SID160747497 | 0.141 | 3.96 | 6.7 | inactive |
| AOC3 | SID160720481 | 4.08 | 31.7 | 16.4 | inactive |
| AOC3 | SID160720482 | 0.858 | 9.01 | 7.93 | inactive |
| AOC3 | SID160720483 | -1.31 | -6.23 | 1.71 | inactive |
| PEX11B | SID160720831 | -0.392 | 0.209 | 5.22 | inactive |
| PEX11B | SID160720832 | -0.345 | 0.543 | 4.11 | inactive |
| PEX11B | SID160720834 | 0.992 | 9.95 | 6.87 | inactive |
| GABPB2 | SID160756505 | 0.669 | 7.67 | 7.07 | inactive |
| GABPB2 | SID160756506 | -0.837 | -2.92 | 2.18 | inactive |
| GABPB2 | SID160756507 | 1.91 | 16.4 | 8.52 | inactive |
| DKK3 | SID160732897 | -0.715 | -2.07 | 2.6 | inactive |
| DKK3 | SID160738407 | 0.701 | 7.9 | 6.87 | inactive |
| DKK3 | SID160738408 | -0.00985 | 2.9 | 5.64 | inactive |
| EXOSC1 | SID160731343 | -0.22 | 1.42 | 4.34 | inactive |
| EXOSC1 | SID160739850 | -0.468 | -0.324 | 5.81 | inactive |
| EXOSC1 | SID160739851 | 0.918 | 9.42 | 7.73 | inactive |
| APOC1 | SID160718773 | -0.941 | -3.65 | 3.48 | inactive |
| APOC1 | SID160718784 | 1.88 | 16.2 | 10.8 | inactive |
| APOC1 | SID160723654 | 6.09 | 45.8 | 21.1 | active |
| LY6G6D | SID160746929 | -0.312 | 0.773 | 4.65 | inactive |
| LY6G6D | SID160746930 | 0.21 | 4.45 | 6.58 | inactive |
| LY6G6D | SID160746931 | 2.21 | 18.5 | 8.9 | inactive |
| TMEM38B | SID160743068 | -0.311 | 0.777 | 4.82 | inactive |
| TMEM38B | SID160743069 | 0.353 | 5.45 | 6.4 | inactive |
| TMEM38B | SID160743070 | -0.58 | -1.11 | 2.78 | inactive |
| ETV7 | SID160740914 | 0.516 | 6.6 | 8.95 | inactive |
| ETV7 | SID160740915 | 0.345 | 5.4 | 6.24 | inactive |
| ETV7 | SID160740916 | -0.622 | -1.41 | 3.26 | inactive |
| DDIT3 | SID160732612 | -0.264 | 1.11 | 3.96 | inactive |
| DDIT3 | SID160753233 | 0.965 | 9.75 | 9.88 | inactive |
| DDIT3 | SID160753244 | -0.463 | -0.29 | 3.98 | inactive |

Already shown: an excerpt of the list.
| target | PubChem SID | G2 robust z-score | G2 cells, % of GMNN control | raw share of cells in G2 (%) | Call |
| --- | --- | --- | --- | --- | --- |
| DKK3 | SID160738408 | -0.00985 | 2.9 | 5.64 | inactive |
| EXOSC1 | SID160731343 | -0.22 | 1.42 | 4.34 | inactive |
| EXOSC1 | SID160739850 | -0.468 | -0.324 | 5.81 | inactive |
| EXOSC1 | SID160739851 | 0.918 | 9.42 | 7.73 | inactive |
| APOC1 | SID160718773 | -0.941 | -3.65 | 3.48 | inactive |
| APOC1 | SID160718784 | 1.88 | 16.2 | 10.8 | inactive |
| APOC1 | SID160723654 | 6.09 | 45.8 | 21.1 | active |
| LY6G6D | SID160746929 | -0.312 | 0.773 | 4.65 | inactive |
| LY6G6D | SID160746930 | 0.21 | 4.45 | 6.58 | inactive |
| LY6G6D | SID160746931 | 2.21 | 18.5 | 8.9 | inactive |
| TMEM38B | SID160743068 | -0.311 | 0.777 | 4.82 | inactive |
| TMEM38B | SID160743069 | 0.353 | 5.45 | 6.4 | inactive |
| TMEM38B | SID160743070 | -0.58 | -1.11 | 2.78 | inactive |

More records follow.
| target | PubChem SID | G2 robust z-score | G2 cells, % of GMNN control | raw share of cells in G2 (%) | Call |
| --- | --- | --- | --- | --- | --- |
| SSX2IP | SID160755547 | -0.364 | 0.405 | 5.14 | inactive |
| SSX2IP | SID160755548 | 0.564 | 6.93 | 8.89 | inactive |
| SSX2IP | SID160755549 | 0.544 | 6.79 | 7.05 | inactive |
| ANKRD13A | SID160753391 | -0.604 | -1.28 | 3.54 | inactive |
| ANKRD13A | SID160753392 | -0.861 | -3.09 | 2.03 | inactive |
| ANKRD13A | SID160753393 | 0.18 | 4.24 | 4.27 | inactive |
| ZNF618 | SID160755130 | 1.58 | 14 | 7.92 | inactive |
| ZNF618 | SID160755131 | -0.938 | -3.63 | 1.91 | inactive |
| ZNF618 | SID160755132 | -0.282 | 0.98 | 3.87 | inactive |
| HCN2 | SID160723622 | 0.0697 | 3.46 | 6.55 | inactive |
| HCN2 | SID160723633 | 1.66 | 14.6 | 9.73 | inactive |
| HCN2 | SID160731673 | -0.876 | -3.2 | 3.13 | inactive |
| NEK1 | SID160731283 | -0.446 | -0.168 | 5.35 | inactive |
| NEK1 | SID160777957 | -0.169 | 1.78 | 6.2 | inactive |
| NEK1 | SID160777958 | -0.833 | -2.89 | 3.01 | inactive |
| KDM3A | SID160731534 | -0.0467 | 2.64 | 3.72 | inactive |
| KDM3A | SID160744442 | -0.76 | -2.38 | 4.83 | inactive |
| KDM3A | SID160744443 | 0.48 | 6.35 | 5.63 | inactive |
| NDUFB8 | SID160777878 | 0.49 | 6.41 | 8.01 | inactive |
| NDUFB8 | SID160777879 | 0.317 | 5.2 | 7.37 | inactive |
| NDUFB8 | SID160777881 | -1.23 | -5.66 | 1.33 | inactive |
| NFXL1 | SID160759245 | 2.4 | 19.8 | 9.92 | inactive |
| NFXL1 | SID160759246 | -0.435 | -0.0959 | 3.13 | inactive |
| NFXL1 | SID160759247 | -0.747 | -2.29 | 2.72 | inactive |
| ANKRD16 | SID160741853 | 0.908 | 9.35 | 6.95 | inactive |
| ANKRD16 | SID160741854 | 2.82 | 22.8 | 13.9 | inactive |
| ANKRD16 | SID160741855 | 1.37 | 12.6 | 7.35 | inactive |
| FGF7 | SID160765121 | 0.16 | 4.09 | 7.22 | inactive |
| FGF7 | SID160765132 | 0.57 | 6.98 | 6.64 | inactive |
| FGF7 | SID160765143 | 1.13 | 10.9 | 7.79 | inactive |
| PURA | SID160715446 | -1.38 | -6.75 | 1.9 | inactive |
| PURA | SID160715447 | -0.684 | -1.85 | 4.34 | inactive |
| PURA | SID160715448 | -1.06 | -4.5 | 2.96 | inactive |
| ONECUT1 | SID160775105 | -0.659 | -1.67 | 3.59 | inactive |
| ONECUT1 | SID160775106 | 2.49 | 20.5 | 13.5 | inactive |
| ONECUT1 | SID160775107 | -0.969 | -3.85 | 3.65 | inactive |
| PRIMA1 | SID160758216 | 1.52 | 13.7 | 8.42 | inactive |
| PRIMA1 | SID160758217 | -0.808 | -2.72 | 2.07 | inactive |
| PRIMA1 | SID160758218 | -1.11 | -4.86 | 1.37 | inactive |
| GAREM1 | SID160747922 | 0.108 | 3.73 | 6.2 | inactive |
| GAREM1 | SID160747923 | -0.065 | 2.51 | 5.73 | inactive |
| GAREM1 | SID160747924 | 0.542 | 6.78 | 4.49 | inactive |
